For 2 molecules, binding results are on record in paper PMC6157487.

By UniProt entry, the sequences of proteins in these tests, tags left out.
UniProt P22002: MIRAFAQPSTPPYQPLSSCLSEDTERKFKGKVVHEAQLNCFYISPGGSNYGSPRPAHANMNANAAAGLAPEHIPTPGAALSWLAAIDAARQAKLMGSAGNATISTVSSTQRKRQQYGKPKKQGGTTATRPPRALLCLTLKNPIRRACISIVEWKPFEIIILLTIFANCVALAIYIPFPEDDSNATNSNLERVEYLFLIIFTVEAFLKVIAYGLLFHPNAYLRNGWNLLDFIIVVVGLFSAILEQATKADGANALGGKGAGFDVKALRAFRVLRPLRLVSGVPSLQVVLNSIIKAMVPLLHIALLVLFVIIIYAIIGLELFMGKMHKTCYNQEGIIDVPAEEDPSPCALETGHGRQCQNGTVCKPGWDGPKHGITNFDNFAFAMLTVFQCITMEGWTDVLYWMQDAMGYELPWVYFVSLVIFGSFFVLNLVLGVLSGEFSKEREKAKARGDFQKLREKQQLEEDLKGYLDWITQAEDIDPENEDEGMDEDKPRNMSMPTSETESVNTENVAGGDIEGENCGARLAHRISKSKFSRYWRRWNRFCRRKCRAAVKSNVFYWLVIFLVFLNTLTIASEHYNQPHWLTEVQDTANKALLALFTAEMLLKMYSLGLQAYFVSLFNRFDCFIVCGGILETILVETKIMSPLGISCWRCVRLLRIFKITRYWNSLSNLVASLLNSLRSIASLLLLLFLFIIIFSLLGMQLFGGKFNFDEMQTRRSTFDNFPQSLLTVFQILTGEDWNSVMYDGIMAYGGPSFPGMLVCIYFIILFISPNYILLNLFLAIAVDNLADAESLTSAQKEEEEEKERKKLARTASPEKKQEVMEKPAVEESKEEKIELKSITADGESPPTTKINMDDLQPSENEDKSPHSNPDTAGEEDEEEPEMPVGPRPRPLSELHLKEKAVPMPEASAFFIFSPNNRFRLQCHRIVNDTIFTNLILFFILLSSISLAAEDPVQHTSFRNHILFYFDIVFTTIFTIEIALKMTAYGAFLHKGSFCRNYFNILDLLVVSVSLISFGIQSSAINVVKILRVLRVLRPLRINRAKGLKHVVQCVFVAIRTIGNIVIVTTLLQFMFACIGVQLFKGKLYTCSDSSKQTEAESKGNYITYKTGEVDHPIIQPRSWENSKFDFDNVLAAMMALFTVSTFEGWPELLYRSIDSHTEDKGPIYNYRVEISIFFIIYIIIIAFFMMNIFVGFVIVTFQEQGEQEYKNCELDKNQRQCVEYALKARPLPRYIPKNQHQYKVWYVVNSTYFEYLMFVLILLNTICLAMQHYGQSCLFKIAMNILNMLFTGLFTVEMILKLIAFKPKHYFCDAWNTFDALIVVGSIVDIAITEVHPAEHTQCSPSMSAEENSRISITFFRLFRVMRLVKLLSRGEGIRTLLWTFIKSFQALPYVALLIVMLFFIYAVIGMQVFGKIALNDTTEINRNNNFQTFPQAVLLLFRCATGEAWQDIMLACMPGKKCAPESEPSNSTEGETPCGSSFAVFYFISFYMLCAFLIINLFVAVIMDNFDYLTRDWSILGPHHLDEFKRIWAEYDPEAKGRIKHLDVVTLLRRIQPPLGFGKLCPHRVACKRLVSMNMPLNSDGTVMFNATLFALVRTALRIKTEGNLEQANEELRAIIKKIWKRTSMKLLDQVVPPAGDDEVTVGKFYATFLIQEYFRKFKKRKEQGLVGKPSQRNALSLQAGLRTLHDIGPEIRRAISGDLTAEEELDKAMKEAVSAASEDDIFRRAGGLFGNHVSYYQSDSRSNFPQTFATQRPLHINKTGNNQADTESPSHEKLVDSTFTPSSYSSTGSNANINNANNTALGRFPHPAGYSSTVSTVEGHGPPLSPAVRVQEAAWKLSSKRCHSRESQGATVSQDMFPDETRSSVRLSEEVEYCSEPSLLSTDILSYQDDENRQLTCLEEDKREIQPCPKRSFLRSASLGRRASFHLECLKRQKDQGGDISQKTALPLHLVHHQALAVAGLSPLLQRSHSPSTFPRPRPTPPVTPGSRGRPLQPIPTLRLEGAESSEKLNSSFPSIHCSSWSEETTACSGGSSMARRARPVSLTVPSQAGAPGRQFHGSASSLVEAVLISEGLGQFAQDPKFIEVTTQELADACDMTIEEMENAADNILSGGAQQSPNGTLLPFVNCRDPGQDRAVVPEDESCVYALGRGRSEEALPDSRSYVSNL

Experiment [1] has as its target T1, Caveolin-3 (rat (endogenous in Lewis rat cardiomyocytes)) (UniProt P51638).
T1 sequence: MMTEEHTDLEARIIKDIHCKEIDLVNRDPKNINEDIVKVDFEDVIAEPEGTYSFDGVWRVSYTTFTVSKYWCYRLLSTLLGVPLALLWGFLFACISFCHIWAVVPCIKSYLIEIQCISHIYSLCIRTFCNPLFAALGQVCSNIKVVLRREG
Nature of the experiment: proximity ligation; Duolink (in situ) kit with 'green' detection reagents on isolated Lewis rat cardiomyocytes fixed with methanol (-20°C); cells from loaded hearts and from hearts after 8 weeks of partial mechanical unloading (HTHAL); confocal imaging, particles counted in ImageJ.

Experiment [2] concerns the target T1, Caveolin-3 (rat (endogenous in Lewis rat cardiomyocytes)). Described as above. This is another data set of the same source.

Read-outs that look alike come from different tables or passages of the source. Results are given in words; binding and its absence hold for the method and conditions named. In cells and extracts the contact can be indirect. Some binding calls cover weakened binding; strength is not graded here.

“Cav1.2 sub-unit of the L-type calcium channel (from UniProt P22002 1-2169)”: the binding result in experiment [1] is “binds”.

B1: Junctophilin-2 (protein, UniProt Q2PS20 1-692)
chain: MSGGRFDFDDGGAYCGGWEGGKAHGHGLCTGPKGQGEYSGSWNFGFEVAGVYTWPSGNTFEGYWSQGKRHGLGIETKGRWLYKGEWTHGFKGRYGIRQSTNSGAKYEGTWNNGLQDGYGTETYADGGTYQGQFTNGMRHGYGVRQSVPYGMAVVVRSPLRTSLSSLRSEHSNGTVAPDSPAADGPTLPLPPVPRGGFALSLLATAEAARPPGLFTRGALLGRLRRSESRTSLGSQRSRLSFLKSELSSGASDAASTGSLAEGAEGPDDAAAPFDADIDATTTETYMGEWKNDKRSGFGVSERSSGLRYEGEWLDNLRHGYGRTTLPDGHREEGKYRHNVLVKGTKRRVLPLKSNKVRQKVEHGVEGAQRAAAIARQKAEIAASRTSHAKAKAEAAEQAALAANQESNIARTLAKELAPDFYQPGPEYQKRRLLQEILENSESLLEPRERGPGTGLPERPRESPQLHERETPQPEGGPPSPAGTPPQPKRPRPGSSKDGLLSPGAWNGEPGGEGSRPATPSDGAGRRSPARPASEHMAIEALQPPPAPSREPEVALYRGYHSYAVRTGPPEPPPLEDEPEPEPEVPRSDSEPPSPVSATVQEEESPAPRSRVPAKPATLEPKPIVPKAEPKAKARKTEARGLSKAGAKKKGRKEVAQEAEAEVEVEEVPNTVLICMVILLNIGLAILFVHLLT
For B1, the binding entry in experiment [2] is listed as “binds”.
